Test [1] deals with Matrix metalloproteinase 3 (human (endogenous in OVCAR3CIS)) (UniProt P08254). Put plainly: affinity purification with mass spectrometry; extracellular MMP3: supernatants of serum-free OVCAR3CIS cells, untreated or cisplatin-treated, pre-cleared on protein A/G magnetic beads, anti-MMP3 antibody (Abcam) 10 ug/200 ug protein at 4 °C overnight, protein A/G magnetic beads (Pierce MS-compatible Magnetic IP Kit), eluate by LC-MS/MS.

Chains of the proteins cited; added tags and fusions are not shown. Residues count along the entry.
UniProt O15230, residues 36-3695: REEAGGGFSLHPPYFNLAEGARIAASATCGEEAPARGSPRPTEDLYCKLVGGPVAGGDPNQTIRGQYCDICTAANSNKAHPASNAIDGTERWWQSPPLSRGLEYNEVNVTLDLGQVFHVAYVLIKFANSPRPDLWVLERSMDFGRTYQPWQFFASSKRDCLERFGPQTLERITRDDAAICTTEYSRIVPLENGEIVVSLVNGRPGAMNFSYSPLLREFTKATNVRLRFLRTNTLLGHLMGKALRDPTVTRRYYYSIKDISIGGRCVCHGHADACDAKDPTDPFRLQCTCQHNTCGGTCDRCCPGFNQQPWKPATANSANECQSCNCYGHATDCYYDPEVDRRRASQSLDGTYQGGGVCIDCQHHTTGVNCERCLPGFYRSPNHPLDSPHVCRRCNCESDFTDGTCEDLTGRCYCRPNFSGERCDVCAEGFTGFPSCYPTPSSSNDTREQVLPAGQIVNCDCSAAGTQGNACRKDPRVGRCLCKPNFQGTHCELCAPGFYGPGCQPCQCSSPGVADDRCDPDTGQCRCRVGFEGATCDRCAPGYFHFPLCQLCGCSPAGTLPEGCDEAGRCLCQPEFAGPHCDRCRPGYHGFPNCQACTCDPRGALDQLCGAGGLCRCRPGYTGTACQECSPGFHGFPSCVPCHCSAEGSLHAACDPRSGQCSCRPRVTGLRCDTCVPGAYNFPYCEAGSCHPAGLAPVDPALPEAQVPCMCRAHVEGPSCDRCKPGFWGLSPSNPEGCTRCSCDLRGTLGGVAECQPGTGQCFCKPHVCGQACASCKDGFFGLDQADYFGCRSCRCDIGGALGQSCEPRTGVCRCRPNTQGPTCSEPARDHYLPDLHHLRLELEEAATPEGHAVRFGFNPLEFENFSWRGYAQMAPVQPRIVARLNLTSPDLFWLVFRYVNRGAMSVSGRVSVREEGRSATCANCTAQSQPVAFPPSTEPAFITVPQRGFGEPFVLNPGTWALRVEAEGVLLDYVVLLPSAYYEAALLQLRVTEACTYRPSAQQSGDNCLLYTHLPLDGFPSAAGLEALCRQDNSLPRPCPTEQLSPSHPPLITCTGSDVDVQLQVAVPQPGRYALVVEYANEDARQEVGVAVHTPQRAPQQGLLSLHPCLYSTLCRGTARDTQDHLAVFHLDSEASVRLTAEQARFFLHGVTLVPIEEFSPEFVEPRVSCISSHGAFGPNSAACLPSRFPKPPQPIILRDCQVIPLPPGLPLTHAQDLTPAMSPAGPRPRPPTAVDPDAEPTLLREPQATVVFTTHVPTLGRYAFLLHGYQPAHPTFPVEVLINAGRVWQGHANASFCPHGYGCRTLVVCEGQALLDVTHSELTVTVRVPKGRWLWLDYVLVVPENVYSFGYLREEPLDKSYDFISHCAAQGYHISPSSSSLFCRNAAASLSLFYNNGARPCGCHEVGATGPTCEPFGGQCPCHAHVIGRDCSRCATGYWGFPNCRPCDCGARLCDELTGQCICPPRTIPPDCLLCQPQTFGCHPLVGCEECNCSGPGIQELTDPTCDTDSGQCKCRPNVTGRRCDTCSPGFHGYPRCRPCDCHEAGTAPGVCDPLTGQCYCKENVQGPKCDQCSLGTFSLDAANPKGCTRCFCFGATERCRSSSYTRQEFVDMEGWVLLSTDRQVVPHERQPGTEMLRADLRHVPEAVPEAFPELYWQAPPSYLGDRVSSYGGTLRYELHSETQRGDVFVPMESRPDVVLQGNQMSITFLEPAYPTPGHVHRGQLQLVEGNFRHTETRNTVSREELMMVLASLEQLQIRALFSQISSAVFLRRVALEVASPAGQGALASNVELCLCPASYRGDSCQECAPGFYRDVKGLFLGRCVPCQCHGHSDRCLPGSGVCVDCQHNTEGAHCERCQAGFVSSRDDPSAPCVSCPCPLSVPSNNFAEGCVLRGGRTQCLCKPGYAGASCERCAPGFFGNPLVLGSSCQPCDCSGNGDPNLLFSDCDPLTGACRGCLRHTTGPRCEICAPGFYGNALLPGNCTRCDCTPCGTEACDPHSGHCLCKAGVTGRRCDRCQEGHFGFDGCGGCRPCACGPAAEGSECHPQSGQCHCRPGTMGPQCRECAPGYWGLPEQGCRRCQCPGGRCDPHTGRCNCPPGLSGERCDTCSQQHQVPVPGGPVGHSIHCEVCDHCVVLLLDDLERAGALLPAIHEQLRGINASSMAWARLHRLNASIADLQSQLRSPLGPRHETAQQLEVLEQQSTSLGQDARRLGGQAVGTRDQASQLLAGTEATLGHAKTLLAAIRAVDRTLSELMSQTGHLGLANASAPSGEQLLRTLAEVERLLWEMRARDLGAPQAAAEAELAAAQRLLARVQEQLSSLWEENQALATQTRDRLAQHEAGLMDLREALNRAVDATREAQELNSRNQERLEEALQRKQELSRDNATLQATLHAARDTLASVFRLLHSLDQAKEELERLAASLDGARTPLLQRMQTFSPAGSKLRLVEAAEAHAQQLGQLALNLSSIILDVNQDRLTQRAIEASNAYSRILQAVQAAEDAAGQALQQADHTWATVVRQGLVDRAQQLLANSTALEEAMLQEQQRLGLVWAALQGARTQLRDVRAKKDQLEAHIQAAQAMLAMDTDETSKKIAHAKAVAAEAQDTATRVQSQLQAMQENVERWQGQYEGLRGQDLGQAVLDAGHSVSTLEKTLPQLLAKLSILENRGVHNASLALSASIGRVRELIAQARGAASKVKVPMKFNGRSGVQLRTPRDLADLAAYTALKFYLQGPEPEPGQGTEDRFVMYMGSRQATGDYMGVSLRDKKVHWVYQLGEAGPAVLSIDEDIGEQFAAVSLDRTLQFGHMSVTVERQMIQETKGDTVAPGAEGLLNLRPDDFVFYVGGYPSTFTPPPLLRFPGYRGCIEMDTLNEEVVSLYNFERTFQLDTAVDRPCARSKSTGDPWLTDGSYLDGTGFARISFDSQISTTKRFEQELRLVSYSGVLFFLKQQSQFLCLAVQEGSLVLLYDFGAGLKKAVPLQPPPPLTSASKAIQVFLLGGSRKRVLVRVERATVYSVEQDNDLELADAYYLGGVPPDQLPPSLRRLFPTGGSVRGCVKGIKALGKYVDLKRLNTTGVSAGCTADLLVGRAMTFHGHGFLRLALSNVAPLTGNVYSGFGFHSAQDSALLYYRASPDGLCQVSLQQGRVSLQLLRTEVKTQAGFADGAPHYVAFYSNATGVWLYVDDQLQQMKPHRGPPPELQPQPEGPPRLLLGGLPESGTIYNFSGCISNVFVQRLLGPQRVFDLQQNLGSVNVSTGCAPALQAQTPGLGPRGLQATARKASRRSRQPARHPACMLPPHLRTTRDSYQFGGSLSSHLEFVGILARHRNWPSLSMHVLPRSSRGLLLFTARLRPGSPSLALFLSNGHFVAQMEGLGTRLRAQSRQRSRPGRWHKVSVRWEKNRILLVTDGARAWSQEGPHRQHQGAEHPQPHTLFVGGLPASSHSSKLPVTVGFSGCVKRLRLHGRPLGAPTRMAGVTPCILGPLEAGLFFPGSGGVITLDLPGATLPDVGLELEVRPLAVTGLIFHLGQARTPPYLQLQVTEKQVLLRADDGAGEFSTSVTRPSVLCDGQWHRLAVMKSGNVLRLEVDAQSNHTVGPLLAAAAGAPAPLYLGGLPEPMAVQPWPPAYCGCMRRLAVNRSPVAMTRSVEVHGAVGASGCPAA
UniProt O75022, residues 24-631: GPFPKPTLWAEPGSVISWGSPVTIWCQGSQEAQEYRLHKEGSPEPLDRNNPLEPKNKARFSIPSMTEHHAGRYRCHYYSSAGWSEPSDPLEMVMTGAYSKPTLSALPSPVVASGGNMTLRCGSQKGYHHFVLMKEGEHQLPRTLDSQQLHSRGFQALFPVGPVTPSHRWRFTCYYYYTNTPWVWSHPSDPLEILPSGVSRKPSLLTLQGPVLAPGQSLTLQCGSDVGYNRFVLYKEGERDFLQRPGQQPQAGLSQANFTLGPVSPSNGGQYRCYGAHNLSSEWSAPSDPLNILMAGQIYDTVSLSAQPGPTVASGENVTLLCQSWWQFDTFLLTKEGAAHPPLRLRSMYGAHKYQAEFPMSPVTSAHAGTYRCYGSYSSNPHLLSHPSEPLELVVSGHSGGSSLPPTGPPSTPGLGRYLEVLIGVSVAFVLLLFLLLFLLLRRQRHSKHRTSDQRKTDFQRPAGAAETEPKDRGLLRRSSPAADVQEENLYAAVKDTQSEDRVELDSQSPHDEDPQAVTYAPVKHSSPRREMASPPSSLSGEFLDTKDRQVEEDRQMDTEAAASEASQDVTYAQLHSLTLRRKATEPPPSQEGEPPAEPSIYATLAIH
UniProt P35579: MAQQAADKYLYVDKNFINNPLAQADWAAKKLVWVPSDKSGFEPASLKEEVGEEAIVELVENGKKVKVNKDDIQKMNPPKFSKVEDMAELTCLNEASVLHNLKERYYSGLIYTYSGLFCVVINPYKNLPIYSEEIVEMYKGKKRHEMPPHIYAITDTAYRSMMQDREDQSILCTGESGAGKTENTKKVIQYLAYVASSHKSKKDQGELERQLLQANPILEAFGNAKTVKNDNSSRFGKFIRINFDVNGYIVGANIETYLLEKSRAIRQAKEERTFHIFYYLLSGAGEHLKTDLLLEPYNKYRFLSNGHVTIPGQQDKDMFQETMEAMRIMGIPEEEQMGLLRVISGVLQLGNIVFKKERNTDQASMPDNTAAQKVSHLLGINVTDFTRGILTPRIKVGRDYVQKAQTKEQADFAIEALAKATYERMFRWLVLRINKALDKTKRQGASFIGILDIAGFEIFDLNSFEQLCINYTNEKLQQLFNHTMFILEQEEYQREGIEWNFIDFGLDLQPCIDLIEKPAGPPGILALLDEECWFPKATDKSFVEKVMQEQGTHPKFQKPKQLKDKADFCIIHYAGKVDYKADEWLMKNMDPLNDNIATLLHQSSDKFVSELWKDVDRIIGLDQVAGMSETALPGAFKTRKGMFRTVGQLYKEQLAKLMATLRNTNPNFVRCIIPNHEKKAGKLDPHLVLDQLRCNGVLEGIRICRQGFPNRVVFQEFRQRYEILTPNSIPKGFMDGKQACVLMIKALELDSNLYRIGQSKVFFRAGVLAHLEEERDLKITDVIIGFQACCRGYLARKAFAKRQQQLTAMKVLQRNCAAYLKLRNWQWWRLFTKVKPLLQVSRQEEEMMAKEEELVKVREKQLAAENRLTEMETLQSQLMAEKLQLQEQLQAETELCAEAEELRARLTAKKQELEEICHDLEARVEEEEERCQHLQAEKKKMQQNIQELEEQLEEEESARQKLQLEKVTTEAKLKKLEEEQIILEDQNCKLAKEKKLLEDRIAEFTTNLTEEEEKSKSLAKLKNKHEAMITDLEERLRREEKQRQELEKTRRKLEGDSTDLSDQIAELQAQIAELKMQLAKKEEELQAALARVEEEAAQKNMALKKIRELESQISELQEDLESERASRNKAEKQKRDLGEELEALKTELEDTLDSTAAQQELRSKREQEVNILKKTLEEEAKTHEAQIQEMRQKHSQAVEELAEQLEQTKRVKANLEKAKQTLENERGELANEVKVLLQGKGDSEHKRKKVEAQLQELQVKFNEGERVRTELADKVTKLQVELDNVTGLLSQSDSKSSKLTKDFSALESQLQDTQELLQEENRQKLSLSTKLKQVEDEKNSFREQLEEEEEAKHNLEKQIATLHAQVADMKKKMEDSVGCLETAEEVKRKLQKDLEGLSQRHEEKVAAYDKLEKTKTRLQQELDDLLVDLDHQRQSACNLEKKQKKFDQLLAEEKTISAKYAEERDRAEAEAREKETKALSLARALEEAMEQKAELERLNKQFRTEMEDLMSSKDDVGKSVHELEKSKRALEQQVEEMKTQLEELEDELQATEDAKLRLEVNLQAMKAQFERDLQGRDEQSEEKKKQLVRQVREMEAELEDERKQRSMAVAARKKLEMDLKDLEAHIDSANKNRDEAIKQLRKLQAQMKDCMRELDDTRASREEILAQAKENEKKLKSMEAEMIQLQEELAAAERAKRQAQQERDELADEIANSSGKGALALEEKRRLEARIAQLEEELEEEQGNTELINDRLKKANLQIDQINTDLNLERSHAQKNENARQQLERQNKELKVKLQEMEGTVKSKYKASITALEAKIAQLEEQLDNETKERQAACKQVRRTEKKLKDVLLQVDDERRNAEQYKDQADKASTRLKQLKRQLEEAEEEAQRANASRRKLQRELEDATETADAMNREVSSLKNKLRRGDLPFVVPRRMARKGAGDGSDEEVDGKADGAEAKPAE
UniProt P0C875: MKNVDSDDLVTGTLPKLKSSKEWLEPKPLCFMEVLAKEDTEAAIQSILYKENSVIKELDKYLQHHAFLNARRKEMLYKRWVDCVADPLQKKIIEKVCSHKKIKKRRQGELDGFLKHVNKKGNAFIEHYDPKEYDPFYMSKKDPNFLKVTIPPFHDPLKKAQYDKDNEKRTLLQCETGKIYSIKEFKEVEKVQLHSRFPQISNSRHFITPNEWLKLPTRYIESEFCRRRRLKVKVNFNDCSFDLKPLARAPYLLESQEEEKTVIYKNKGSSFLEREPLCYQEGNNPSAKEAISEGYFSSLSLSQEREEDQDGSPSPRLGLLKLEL

For test [2] the target is unchanged. Description: affinity purification with mass spectrometry; intracellular MMP3: protein of serum-free OVCAR3CIS cells, untreated or cisplatin-treated, pre-cleared on protein A/G magnetic beads, anti-MMP3 antibody (Abcam) 10 ug/200 ug protein at 4 °C overnight, protein A/G magnetic beads (Pierce MS-compatible Magnetic IP Kit), eluate by LC-MS/MS; listed proteins consistent in at least two replicates.

These are yes or no findings as the source states them, for the method shown. Binding seen in cells or lysates may run through a third protein. A yes stands for co-enrichment or nearness to the bait. Other partners may have been found.

As for Albumin (from UniProt P02768 25-609), the binding entry in test [1] and in test [2] was “binds” each time.

As for “Alpha-protein kinase 2 (from UniProt Q86TB3 1-2170)”, the binding result in test [1] is given as “binds”.

On to Ataxin-2 (from UniProt Q99700 1-1313), for which the binding entry in test [1] and in test [2] was “binds” in each case.

In the case of “BTB/POZ domain-containing protein KCTD3 (from UniProt Q9Y597 1-815)”, the binding result in test [2] was “binds”.

Regarding “Clathrin heavy chain 1 (from UniProt Q00610 1-1675)”, the binding result in test [2] was “binds”.

“Coiled-coil domain-containing protein 22 (from UniProt O60826 1-627)”: the binding entry in test [1] and in test [2] was “binds” throughout.

On to Filaggrin (from UniProt P20930 1-4061), for which the binding result in test [1] and in test [2] was “binds” in each case.

As for “Glyceraldehyde-3-phosphate dehydrogenase (from UniProt P04406 1-335)”, in test [2], the binding result is listed as “binds”.

Consider “Hemoglobin subunit epsilon (from UniProt P02100 1-147)”, for which, in test [1], the binding entry is “binds”.

“Heterogeneous nuclear ribonucleoprotein A/B (from UniProt Q99729 1-332)”: in test [1], the binding entry is “binds”.

Consider “High mobility group protein HMGI-C (from UniProt P52926 1-109)”, for which the binding entry in test [2] was “binds”.

Take “Immunoglobulin lambda-1 light chain (from UniProt P0DOX8 1-216)”: in test [1], the binding entry is listed as “binds”.

Turning to “Laminin subunit alpha-5 (from UniProt O15230 36-3695)”, in test [1], the binding result was “binds”.

As to “Leukocyte immunoglobulin-like receptor subfamily B member 3 (from UniProt O75022 24-631)”, the binding result in test [1] is recorded as “binds”.

For the substance “Myosin light polypeptide 6 (from UniProt P60660 1-151)”, in test [2], the binding entry is “binds”.

On to “Myosin regulatory light chain 12B (from UniProt O14950 1-172)”, for which, in test [2], the binding result was “binds”.

Turning to Myosin-9 (from UniProt P35579 1-1960), the binding entry in test [2] was “binds”.

With Myosin-10 (from UniProt P35580 1-1976), the binding result in test [2] is reported as “binds”.

In the case of “POTE ankyrin domain family member E (from UniProt Q6S8J3 1-1075)”, the binding result in test [1] is “binds”.

As to “POTE ankyrin domain family member F (from UniProt A5A3E0 1-1075)”, in test [1], the binding entry is listed as “binds”.

“Progranulin (from UniProt P28799 18-593)”: the binding entry in test [1] and in test [2] was “binds” each time.

Take “Protein FAM228B (from UniProt P0C875 1-324)”: the binding entry in test [1] is “binds”.

As for “Putative heat shock 70 kDa protein 7 (from UniProt P48741 1-367)”, in test [1], the binding entry is on record as “binds”.

Take “Retinitis pigmentosa 1-like 1 protein (from UniProt Q8IWN7 1-2400)”: the binding result in test [1] is given as “binds”.

In the case of “SWI/SNF-related matrix-associated actin-dependent regulator of chromatin subfamily D member 2 (from UniProt Q92925 1-531)”, in test [1], the binding result is reported as “binds”.

In the case of “Spectrin alpha chain, non-erythrocytic 1 (from UniProt Q13813 1-2472)”, in test [1], the binding entry is reported as “binds”.

As to “Stress-70 protein, mitochondrial (from UniProt P38646 47-679)”, the binding entry in test [2] is “binds”.

On to “Sulfiredoxin-1 (from UniProt Q9BYN0 1-137)”, for which, in test [2], the binding result is reported as “binds”.

For the substance “Uncharacterized protein C18orf63 (from UniProt Q68DL7 1-685)”, the binding entry in test [1] and in test [2] was “binds” in each case.

Values taken from publication PMC12071843.
